Laboratory results published in patent US20230364266A1.
Results are given in words; binding and its absence hold for the method and conditions named. Some results given as binding are weak or reduced against the parent protein; the word gives no strength.

Sequences of proteins named here, by UniProt entry; tags and fusion partners are left off. Residues count along the entry.
UniProt P06127, residues 25-372: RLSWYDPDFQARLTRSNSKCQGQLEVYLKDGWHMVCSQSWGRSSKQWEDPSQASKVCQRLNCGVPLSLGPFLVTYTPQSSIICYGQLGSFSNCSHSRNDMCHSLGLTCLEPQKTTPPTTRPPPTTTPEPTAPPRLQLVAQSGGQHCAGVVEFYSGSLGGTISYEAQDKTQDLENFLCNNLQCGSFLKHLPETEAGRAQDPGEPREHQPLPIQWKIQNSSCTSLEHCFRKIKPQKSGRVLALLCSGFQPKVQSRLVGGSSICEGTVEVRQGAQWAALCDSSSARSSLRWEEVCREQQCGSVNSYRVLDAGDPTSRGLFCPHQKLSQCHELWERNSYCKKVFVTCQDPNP

Tests used:
[1] = target: labeled CD5 protein (Alexa647-conjugated CD5 protein) (UniProt P06127); test: flow cytometry; retrotransposed HEK293 cells stained with Alexa647-conjugated CD5 protein, compared with negative control cells
[2] = target: labeled CD5 protein (Alexa647-conjugated CD5 protein) (UniProt P06127); test: flow cytometry; transfected HEK293T cells carrying the receptor stained with labeled CD5

binding [1]: binds | binding [2]: binds
B1: CD5-FcR-PI3K chimeric receptor (ATAK receptor; CD5 binder chimeric antigen receptor), expressed from LINE-1-plasmid_CD5-intron-FCR-PI3K (receptor)
chain: EIQLVQSGGGLVKPGGSVRISCAASGYTFTNYGMNWVRQAPGKGLEWMGWINTHTGEPTYADSFKGRFTFSLDDSKNTAYLQINSLRAEDTAVYFCTRRGYDWYFDVWGQGTTVTVSSGGGGSGGGGSGGGGSDIQMTQSPSSLSASVGDRVTITCRASQDINSYLSWFQQKPGKAPKTLIYRANRLESGVPSRFSGSGSGTDYTLTISSLQYEDFGIYYCQQYDESPWTFGGGTKLEIKSGGGGSGALSNSIMYFSHFVPVFLPAKPTTTPAPRPPTPAPTIASQPLSLRPEACRPAAGGAVHTRGLDIYIWAPLAGTCGVLLLSLVITLYCRRLKIQVRKAAITSYEKSDGVYTGLSTRNQETYETLKHEKPPQGSGSYEDMRGILYAAPQLRSIRGQPGPNHEEDADSYENM
